Positions count from the first letter of the chain named. Results are given in words; binding and its absence hold for the method and conditions named. Some entries that bind do so weakly or less than the wild type. For some assays here: Tags and fused reporters may be left off the sequences shown.
Tests used:
[1] = molecular target: T1, IL5Rat(S3) tag of pSB_0198 (human) (UniProt Q01344); test: binding of recombinant IL-5 to transduced Jurkat cells (FIG. 10); reference tag
T1 sequence: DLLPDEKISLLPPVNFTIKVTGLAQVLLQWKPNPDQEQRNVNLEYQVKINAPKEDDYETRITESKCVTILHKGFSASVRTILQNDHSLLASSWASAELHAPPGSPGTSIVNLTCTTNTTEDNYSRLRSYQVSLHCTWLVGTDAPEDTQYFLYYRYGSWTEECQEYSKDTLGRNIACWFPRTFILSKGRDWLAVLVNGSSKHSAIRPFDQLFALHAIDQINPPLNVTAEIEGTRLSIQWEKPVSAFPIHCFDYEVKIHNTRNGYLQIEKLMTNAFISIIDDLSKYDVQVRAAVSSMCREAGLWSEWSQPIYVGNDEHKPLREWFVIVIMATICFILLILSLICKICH

Sequences of proteins named here, by UniProt entry; tags and fusion partners are left off. Residues count along the entry.
UniProt P05113, residues 20-134: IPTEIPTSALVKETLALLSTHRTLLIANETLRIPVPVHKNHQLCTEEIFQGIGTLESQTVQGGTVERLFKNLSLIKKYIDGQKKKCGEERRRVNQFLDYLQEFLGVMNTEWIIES

[2] = molecular target: T2, IL5Rat(K186A) tag of pSB_0540 (human) (UniProt Q01344); test: binding of recombinant IL-5 to transduced Jurkat cells (FIG. 13B)
T2 sequence: T1 sequence with K186A

[3] = molecular target: IL5Rat(K186A)EC_Her2(TMIC)(S1) tag of pSB_0693 (human) (UniProt Q01344); test: as above
[4] = molecular target: T3, IL5Rat(K186A, R188A) tag of pSB_0546 (human) (UniProt Q01344); test: binding of recombinant IL-5 to transduced Jurkat cells (FIG. 10)
T3 sequence: T1 sequence with K186A, R188A

[5] = molecular target: T2, IL5Rat(K186A) tag of pSB_0540 (human); test: as above
[6] = molecular target: T4, IL5Ra(K186A, R188A, M295A) tag of pSB_0552 (human) (UniProt Q01344); test: as above
T4 sequence: T1 sequence with K186A, R188A, M295A

[7] = molecular target: T5, IL5Rat(R188A) tag of pSB_0541 (human) (UniProt Q01344); test: as above
T5 sequence: T1 sequence with R188A

[8] = molecular target: T3, IL5Rat(K186A, R188A) tag of pSB_0546 (human); test: binding of recombinant IL-5 to transduced Jurkat cells (FIG. 10 legend)
[9] = molecular target: T2, IL5Rat(K186A) tag of pSB_0540 (human); test: as above
[10] = molecular target: T4, IL5Ra(K186A, R188A, M295A) tag of pSB_0552 (human); test: as above
[11] = molecular target: T5, IL5Rat(R188A) tag of pSB_0541 (human); test: as above
[12] = molecular target: T1, IL5Rat(S3) tag of pSB_0198 (human); test: binding of recombinant IL-5 to transduced Jurkat cells (FIG. 10 legend); reference tag
[13] = molecular target: IL5RatEC_Her2(TMIC)(S1) tag of pSB_0590 (human) (UniProt Q01344); test: binding of recombinant IL-5 to transduced Jurkat cells (FIG. 13B); reference tag
[14] = molecular target: T1, IL5Rat(S3) tag of pSB_0198 (human); test: as above

Measured: binding

recombinant IL-5 (from UniProt P05113 20-134) (ligand)
binds: all assays above

— patent publication US20240417443A1
